Assay results reported in patent EP2601945A1 (Thomale, Jürgen, priority 2011, dated 2013).
At least one structure is not confirmed: it was looked up by name or label, or the drawing left a doubt.

System: Pt-GG adducts in DNA
Test: In vivo screening for cis-platin uptake inhibitors and DPH co-administration, ICA of Pt-GG adducts
Set-up: species or system mice
Conditions: lower dose (ranitidine 50 mg/kg) i.p. 1 h before cis-platin 10 mg/kg; 24 h
Experimental: The sacrificed animals were immediately dissected. Kidneys and lungs were submerged in embedding medium (Tissue-Tek O.C.T. Compound) and frozen in liquid nitrogen. Cochleae were dissected and fixed by intralabyrinthine perfusion with Carnoy's solution (3 hours; for DNA adduct staining) or with formaldehyde (4 % in PBS; 1 hour; for OCT protein staining). Cochleae were decalcified in EDTA solution (10 % w/v in PBS) for 3 days and then placed in sucrose solutions (5 % in PBS for 12 hours and 15 % in PBS for 5 hours). After that samples were imbedded in Tissue-Tek medium, frozen and cryosections of 10 µm cut.
Frozen tissue sections of the inner ear or kidneys on ImmunoSelect slides were fixed in methanol at -20°C for at least 2 hours or overnight and then rehydrated for 10 minutes in PBS, at room temperature. […] The quantification of immuno- and DNA-fluorescence was performed by means of a microscope-coupled digital image analysis system ACAS 6.0 Cytometry Analysis System. Adduct levels in the nuclear DNA of individual cells were calculated by normalizing antibody-derived fluorescence signals to the corresponding DNA content of the same nucleus, and were expressed as arbitrary fluorescence units (AFUs). Data were assigned to specific cell types as determined by histochemistry. […]

## CNC(=C[N+](=O)[O-])NCCSCc1ccc(CN(C)C)o1 [ranitidine]
  protection from DNA platination in the three target cell types: no protection
